Results: PubChem BioAssay AID485314 (National Center for Advancing Translational Sciences (NCATS), 2010)
Screen size: about 340,000 compounds; about 4,500 (1.3%) were called active. The shares of active, inactive and inconclusive entries below differ from those in the screen. The call rests on the fitted dose curve; in most records, active means well fitted inhibition curve with a large enough effect; inconclusive means small, poorly fitted or top-dose-only effect, or another doubt; inactive means no such curve, though single readings can be large or run the other way. A potency beside an inconclusive call is a rough fit, not a confirmed value.
On the % scale 0 is the no-effect control and ±100 the full control effect; potency means the concentration at half of the fitted maximal effect.

These compounds were tested against DNA polymerase beta (Homo sapiens) (UniProt P06746) (assay: qHTS Assay for Inhibitors of DNA Polymerase Beta). Conditions: Pol beta primer extension/strand displacement, fluorescence kinetic; activity change, negative = inhibition: at 114 µM (top of the series).
Method in brief: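 Homogeneous kinetic assay of primer extension and strand displacement by 10 nM Pol beta, preincubated 15 min at room temperature with compound before 50 nM substrate (final) was added. Read at 0 and 10 min; four-parameter Hill fit.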
In the case of `CCn1cc(S(=O)(=O)c2ccc(C)cc2)c(=O)c2cc(F)c(N3CCN(C)CC3)cc21`, the Potency is reported as inconclusive: 0.141 µM [inhibitor, full curve, poor fit].
In the case of `CCc1ccc(OC(=O)c2sc3ncn(Cc4cccc(F)c4)c(=O)c3c2C)cc1`, the “activity change, negative = inhibition” value is reported as inactive: -7.23%.
`COc1ccc(-c2ccc(/C=C3/C(=N)N4C=CSC4=NC3=O)o2)c([N+](=O)[O-])c1` was tested, and the Potency was active: 35.5 µM.
`COc1ccc(/C=N/Nc2nc(C(=O)O)cs2)cc1` was tested, and the Potency was inconclusive: 50.1 µM [inhibitor, single point].
`Cc1cc(C)n2nc(CNS(=O)(=O)c3ccc(F)cc3)nc2n1` was tested, and the Potency was inconclusive: 5.62 µM [inhibitor, full curve, poor fit].
`Cc1ccc(/C=C(\NC(=O)c2ccccc2)C(=O)OCc2ccccc2)cc1` was tested, and the Potency was inconclusive: 11.2 µM [inhibitor, partial curve].
In the case of `COc1cccc(NC(=O)CN2C(=O)NC(c3ccccc3)(c3ccccc3)C2=O)c1`, the Potency is reported as inconclusive: 3.98 µM [inhibitor, full curve, poor fit].
For `Cc1ccc(C)c(N2CCN(S(=O)(=O)c3ccc4c(c3)CCN4C(=O)CCC(=O)O)CC2)c1`, the “activity change, negative = inhibition” value was inactive: -27.5%.
With `COc1cc(NS(=O)(=O)c2ccc(NC(=O)c3ccco3)cc2)nc(OC)n1` the Potency was inconclusive: 89.1 µM [inhibitor, single point].
With `COc1ccc(CCNC(=O)C(=O)Nc2ccc(C)c(C)c2)cc1OC` the Potency was inconclusive: 79.4 µM [inhibitor, single point].
With `c1coc(-c2nnc(-c3ccco3)nn2)c1` the Potency was active: 7.94 µM.
For `Cc1cccc(-n2ccnc2SCC(=O)Nc2cc(C(F)(F)F)ccc2Cl)c1`, the “activity change, negative = inhibition” value was inactive: 7.77%.
`O=[N+]([O-])c1ccccc1/C=C/C=N/n1c(-c2ccc(Cl)cc2)n[nH]c1=S` was tested, and the Potency was inconclusive: 50.1 µM [inhibitor, partial curve].
`COc1ccc(N2CCN(C(c3cc(OC)ccc3OC)c3nnnn3Cc3ccco3)CC2)cc1` (configuration not stated) was tested, and the Potency was inconclusive: 0.447 µM [inhibitor, full curve, poor fit].
For `O=C(CSc1nnnn1-c1ccc(F)cc1)Nc1nc2ccccc2s1`, the Potency was inconclusive: 22.4 µM [inhibitor, full curve].
With `COc1cc(/C=N/NC(=O)c2ccc3c(c2)OCCO3)cc(Br)c1O` the “activity change, negative = inhibition” value was inactive: 6.51%.
`CN(c1ccc(Cl)cc1)S(=O)(=O)c1nnc(NC(=O)c2ccco2)s1` was tested, and the Potency was inconclusive: 50.1 µM [inhibitor, single point].
In the case of `CC1=NN(c2ccc(C(=O)OC(C)C)cc2)C(=O)/C1=C\C=C\c1ccco1`, the Potency is reported as active: 50.1 µM.
In the case of `CCCC(C)NC(=O)COC(=O)c1cc(Br)c(Br)s1` (configuration not stated), the Potency is reported as inconclusive: 89.1 µM [inhibitor, single point].
In the case of `CCOC(=O)C1CCN(C(=O)c2cc3c(C)cc(C)cc3[nH]2)CC1`, the Potency is reported as inconclusive: 89.1 µM [inhibitor, single point].
For `CCOc1ccc2nc(SC3CC(=O)N(c4cccc(OC)c4)C3=O)sc2c1` (configuration not stated), the Potency was inconclusive: 89.1 µM [inhibitor, single point].
For `COC(=O)c1c(-c2ccccc2)csc1NC(=O)C1CC=CCC1C(=O)O` (configuration not stated), the Potency was inconclusive: 31.6 µM [inhibitor, single point].
With `O=C(COC(=O)C12CC3CC(CC(C3)C1)C2)NCc1ccco1` the Potency was active: 14.1 µM.
In the case of `COc1cc(C(CC(=O)N2CCCC2)c2c(OC)cc(OC)c3ccc(=O)oc23)cc(OC)c1OC` (configuration not stated), the Potency is reported as inconclusive: 89.1 µM [inhibitor, single point].
With `O=C1CS/C(=N\N=C\c2ccccc2Cl)N1CC1CC1` the Potency was inconclusive: 70.8 µM [inhibitor, single point].
With `COc1ccc(C(=O)COC(=O)c2nn(C)c(=O)c3ccccc23)c(OC)c1` the Potency was inconclusive: 17.8 µM [inhibitor, full curve].
For `Cc1cc(C)n(CCC(=O)N=Nc2c(O)[nH]c3ccc(Br)cc23)n1`, the Potency was inconclusive: 100 µM [inhibitor, single point].
In the case of `CCOc1ccc(CCNC(=O)CN2C(=O)COc3ccc(S(=O)(=O)N(CC)CC)cc32)cc1`, the “activity change, negative = inhibition” value is reported as inactive: -1.17%.
With `O=C(CN(c1cccc(C(F)(F)F)c1)S(=O)(=O)c1ccccc1)Nc1cccc(Cl)c1` the Potency was inconclusive: 50.1 µM [inhibitor, partial curve].
With `Nc1nc(Nc2ccccc2F)nc(N2CCCC2)c1[N+](=O)[O-]` the “activity change, negative = inhibition” value was inactive: 79.5%.
In the case of `Cc1ccc2nc(SCC(=O)Nc3ccc4c(c3)OCCO4)[nH]c2c1`, the Potency is reported as inconclusive: 28.2 µM [inhibitor, single point].
In the case of `CCOc1cc(S(=O)(=O)NCc2ccccc2)ccc1F`, the Potency is reported as inconclusive: 89.1 µM [inhibitor, single point].
`CCOc1cc(/C=C2\CCn3c2nc2cc(Cl)ccc2c3=O)ccc1O` was tested, and the Potency was inconclusive: 50.1 µM [inhibitor, single point].
With `CC(C)N=c1scc(-c2ccco2)n1/N=C/c1ccc(O)c(O)c1` the Potency was inconclusive: 15.8 µM [inhibitor, partial curve].
`O=S(=O)(c1ccccc1)c1nnn2c1nc(NC1CCCCCC1)c1sccc12` was tested, and the “activity change, negative = inhibition” value was inactive: -14.2%.
For `CCOC(=O)c1cc(-c2ccco2)nc2c1c(C)nn2-c1cccc(Cl)c1`, the Potency was active: 28.2 µM.
For `COc1cc(-c2cc(=O)c3ccccc3o2)ccc1O`, the Potency was inconclusive: 17.8 µM [inhibitor, single point].
With `COc1ccc(/C=C2\CCC(C3CCCC3)C2=O)cc1` (configuration not stated) the “activity change, negative = inhibition” value was inactive: 3.07%.
For `COc1ccc(Cl)cc1NC(=O)Cn1nnc(C(=O)NCc2cccs2)c1N`, the Potency was inconclusive: 22.4 µM [inhibitor, partial curve, poor fit].
`Cc1cc(C)c(S(=O)(=O)N(CC(=O)NCc2cccnc2)C2CCCCC2)c(C)c1` was tested, and the “activity change, negative = inhibition” value was inactive: -26.6%.
In the case of `CCOc1cc(/C=C/c2cc(C(F)(F)F)[nH]c(=O)n2)ccc1O`, the Potency is reported as inconclusive: 3.16 µM [inhibitor, single point].
With `Fc1ccc(-c2ccc(CNCc3ccccn3)o2)cc1Cl` the Potency was inconclusive: 0.126 µM [inhibitor, full curve, poor fit].
With `COC(=O)c1c(-c2cccs2)csc1NC(=O)COc1ccccc1` the Potency was inconclusive: 25.1 µM [inhibitor, full curve, poor fit].
With `Cc1cc(C(=O)Nc2cc(C(C)(C)C)on2)c(C)o1` the Potency was inconclusive: 79.4 µM [inhibitor, single point].
`CCOc1ccc(NS(=O)(=O)c2ccc3[nH]cc(C(=O)N(C)C4CCCCC4)c(=O)c3c2)cc1` was tested, and the Potency was inconclusive: 0.447 µM [inhibitor, full curve, poor fit].
`O=C(NCCc1ccccc1)C1CC(=O)N(C2CCCCCC2)C1` (configuration not stated) was tested, and the “activity change, negative = inhibition” value was inactive: -6.78%.
For `O=C(Cc1cc(=O)[nH][nH]1)N/N=C/C(Cl)=C/c1ccccc1`, the Potency was active: 50.1 µM.
For `Cc1ccc(N2CC(C(=O)Nc3nnc(SCCC4OCCO4)s3)CC2=O)cc1C` (configuration not stated), the Potency was inconclusive: 0.708 µM [inhibitor, full curve].
`Cc1ccc(/C=C/C(=O)NCc2ccccn2)o1` was tested, and the Potency was active: 17.8 µM.
With `COc1ccc(-c2[nH]ncc2CNCc2cc(C)n(C)n2)c(F)c1` the Potency was inconclusive: 0.708 µM [inhibitor, full curve].
In the case of `CCOc1ccc(N2C(=O)CC(NCCNc3ccc(C(=O)c4cccs4)cc3)C2=O)cc1` (configuration not stated), the Potency is reported as inconclusive: 0.355 µM [inhibitor, full curve, poor fit].
In the case of `CC(=O)N1CCN(c2ccc(NC(=O)c3cccc([N+](=O)[O-])c3)cc2)CC1`, the Potency is reported as inconclusive: 35.5 µM [inhibitor, single point].
In the case of `C/C(N)=C(/C#N)C(=O)COC(=O)c1cc(-c2ccccc2)nc2ccc(Br)cc12`, the Potency is reported as inconclusive: 0.631 µM [inhibitor, full curve, poor fit].
`CCOC(=O)c1cc(-c2ccc(OC)cc2)n(CCC(=O)Nc2cccc(C(C)=O)c2)c1C` was tested, and the “activity change, negative = inhibition” value was inactive: -6.81%.
With `Cc1ccc(OCC(=O)NNC(=O)c2ccco2)c(C)c1` the Potency was inconclusive: 28.2 µM [inhibitor, full curve, poor fit].
For `O=C(CNC(=O)c1cccs1)N/N=C/c1cccc(Br)c1`, the Potency was inconclusive: 3.98 µM [inhibitor, single point].
In the case of `CN(C)c1ccc(CNC(=O)CN2C(=O)CCn3nc(-c4cn(C)c5ccccc45)cc32)cc1`, the Potency is reported as inconclusive: 100 µM [inhibitor, single point].
With `O=C(O)CC(NCc1ccco1)C(=O)OCCc1ccccc1` (configuration not stated) the “activity change, negative = inhibition” value was inactive: 2.72%.
With `Clc1cc(CSc2ccccc2)nc(-c2ccccc2)n1` the Potency was inconclusive: 89.1 µM [inhibitor, single point].
`COC1=C(Nc2ccccc2OC)C(=O)c2ccccc2C1=O` was tested, and the Potency was inconclusive: 15.8 µM [inhibitor, partial curve, poor fit].
With `CN(C)S(=O)(=O)N(CC(=O)NCc1ccccc1)c1ccccc1` the Potency was inconclusive: 0.1 µM [inhibitor, full curve, poor fit].
With `COc1cccc(CNC(=O)C2CCN(C(=O)c3sccc3-n3cccc3)CC2)c1` the “activity change, negative = inhibition” value was inactive: 48.9%.
For `Cc1ccc(NC(=O)Cn2cc(C(=O)c3ccco3)c3ccccc32)c(C)c1`, the Potency was inconclusive: 20 µM [inhibitor, full curve].
For `Cc1cc(O)c(C(=O)/C=C/c2ccccc2Br)c(=O)o1`, the “activity change, negative = inhibition” value was inactive: -8.29%.
`NS(=O)(=O)c1ccc(NC(=O)CSc2ncnc3ccccc23)cc1` was tested, and the Potency was active: 31.6 µM.
`N#Cc1ccc2c(c1)C[C@]1(CCCCN3C(=O)c4ccccc4C3=O)Oc3cc(-c4ccccc4)oc(=O)c3[C@H]2O1` was tested, and the activity change, negative = inhibition was inactive: -28.4% [at 22.9 µM].
`C/C=C\C=C/C(=O)Nc1cccc(C2=NOC3(C2)C[C@@H](C(N)=O)N(C(=O)/C=C/C=C\C)C3)c1` (some centres not stated) was tested, and the Potency was active: 6.31 µM.
